# Laboratory results: PubChem BioAssay (EPA / NIEHS)
# Chains of the proteins cited; added tags and fusions are not shown. Lines headed by an entry give the natural chain unless they say otherwise; changes in a name come on top.
# UniProt P18031: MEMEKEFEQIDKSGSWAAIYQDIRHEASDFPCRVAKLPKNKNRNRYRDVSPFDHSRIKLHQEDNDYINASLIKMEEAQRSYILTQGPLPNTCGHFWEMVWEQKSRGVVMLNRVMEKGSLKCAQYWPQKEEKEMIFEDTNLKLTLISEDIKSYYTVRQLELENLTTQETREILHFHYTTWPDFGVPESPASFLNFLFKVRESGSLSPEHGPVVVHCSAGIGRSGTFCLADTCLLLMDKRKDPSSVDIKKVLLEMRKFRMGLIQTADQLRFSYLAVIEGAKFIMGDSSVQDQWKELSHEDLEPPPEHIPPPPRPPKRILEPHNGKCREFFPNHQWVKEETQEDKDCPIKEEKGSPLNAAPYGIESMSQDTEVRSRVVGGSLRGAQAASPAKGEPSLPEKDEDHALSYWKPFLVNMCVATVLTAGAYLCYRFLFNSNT
# UniProt P60484: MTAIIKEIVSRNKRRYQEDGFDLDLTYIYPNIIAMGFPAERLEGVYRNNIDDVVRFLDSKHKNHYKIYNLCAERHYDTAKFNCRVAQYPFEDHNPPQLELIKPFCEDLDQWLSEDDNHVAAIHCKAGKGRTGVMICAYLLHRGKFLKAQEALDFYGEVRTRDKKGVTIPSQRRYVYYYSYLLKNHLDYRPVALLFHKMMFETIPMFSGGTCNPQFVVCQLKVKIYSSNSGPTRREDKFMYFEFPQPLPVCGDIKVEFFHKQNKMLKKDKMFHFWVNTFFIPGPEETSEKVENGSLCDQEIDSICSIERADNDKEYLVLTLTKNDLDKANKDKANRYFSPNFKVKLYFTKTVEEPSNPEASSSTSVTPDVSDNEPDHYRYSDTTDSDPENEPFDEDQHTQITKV
# UniProt P62136, whole entry, looked up: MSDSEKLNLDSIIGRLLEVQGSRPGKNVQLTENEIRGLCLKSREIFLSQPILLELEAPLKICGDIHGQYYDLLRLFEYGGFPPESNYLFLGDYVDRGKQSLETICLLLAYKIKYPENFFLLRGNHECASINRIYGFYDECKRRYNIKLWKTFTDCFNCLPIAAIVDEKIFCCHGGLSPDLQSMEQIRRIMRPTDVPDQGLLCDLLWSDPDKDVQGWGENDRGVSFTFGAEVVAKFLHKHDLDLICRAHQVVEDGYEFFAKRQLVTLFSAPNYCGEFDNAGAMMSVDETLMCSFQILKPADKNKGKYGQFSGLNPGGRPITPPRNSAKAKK
# The inconclusive results got no clear call from the source; some entries with a clear call stand among them for comparison. For some assays here: Where the call is inconclusive, the potency comes from a doubtful curve fit. The source made the active and inactive calls. The calls were made as follows: active = hit-call score of the fitted dose curve at least 0.9, where 1 is the maximum; inconclusive = response in the unintended direction; inactive = score below 0.9.
# Tests used:
# [1] = target: human Protein Tyrosine Phosphatase Non-receptor Type 1 (PTPN1), PTPN1 (gene 5770) (UniProt P18031); test: NVS_ENZ_hPTPN1: NovaScreen (NVS) Enzymatic Assay for human Protein Tyrosine Phosphatase Non-receptor Type 1 (PTPN1) (AID 2283201)
# In short: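 Chemicals were first tested in duplicate at 25 uM, and those passing threshold went on to singleton concentration series topping at 50 uM. Recombinant enzyme, specific substrate, product separated by mobility shift, fluorescence read at 1.33 h; activity loss relative to DMSO.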
# [2] = target: human Phosphatase and Tensin Homolog (PTEN), PTEN (gene 5728) (UniProt P60484); test: NVS_ENZ_hPTEN: NovaScreen (NVS) Enzymatic Assay for human Phosphatase and Tensin Homolog (PTEN) (AID 2283203)
# In short: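 Loss of fluorescent product signal after mobility-shift separation reports PTEN activity, recombinant human enzyme, 1 h after compound addition. Single 25 uM duplicate screen, then concentration-response on actives; DMSO baseline.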
# [3] = target: Serine/threonine-protein phosphatase PP1-alpha catalytic subunit (Homo sapiens) (UniProt P62136); test: NVS_ENZ_hPPP1CA: NovaScreen (NVS) Enzymatic Assay for human Protein Phosphatase 1 Aatalytic subunit Alpha (PPP1CA) (AID 2283200)
# In short: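 Chemicals were first screened in duplicate at 25 uM, and those passing threshold (e.g. 30% inhibition) were run as concentration series to 50 uM. Cell-free recombinant protein, 1.33 h read, fluorescent substrate/product mobility-shift detection, normalised to DMSO.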
smiles,measurement,setting,value
CCOP(=O)(OCC)Oc1nc(Cl)c(Cl)cc1Cl,AC50,[1],inconclusive: 25000 nM
Nc1ccc(N)cc1,AC50,[2],inconclusive: 236 nM
CC1(C)C(C=C(Cl)Cl)C1C(=O)OC(C#N)c1cccc(Oc2ccccc2)c1 (centres undefined),AC50,[2],inconclusive: 155 nM
ClC1=C(Cl)[C@]2(Cl)[C@@H]3[C@@H](Cl)[C@@H](Cl)C[C@@H]3[C@@]1(Cl)C2(Cl)Cl,AC50,[2],inconclusive: 21200 nM
O=C1c2ccccc2C(=O)C1C(=O)C(c1ccccc1)c1ccc(Cl)cc1 (centres undefined),AC50,[2],active: 15200 nM
Cn1cc(-c2ccccc2)c(=O)c(-c2cccc(C(F)(F)F)c2)c1,outcome,[2],inactive
C#CCOS(=O)OC1CCCCC1Oc1ccc(C(C)(C)C)cc1 (centres undefined),outcome,[2],inactive
[2H]C1([2H])[n+]2ccccc2-c2cccc[n+]2C1([2H])[2H],AC50,[3],active: 4960 nM
same,AC50,[2],active: 2.29 nM
O=C(Nc1ccc2[nH]ccc2c1)c1cc2cc(F)ccc2n1Cc1cccc(F)c1,outcome,[1],inactive
CCc1ccc(C(=O)NN(C(=O)c2cc(C)cc(C)c2)C(C)(C)C)cc1,AC50,[1],inconclusive: 54.2 nM
COc1ccc(C(c2ccc(OC)cc2)C(Cl)(Cl)Cl)cc1,AC50,[1],inconclusive: 25000 nM
CCOP(=S)(OCC)SCCS(=O)(=O)CC,AC50,[2],inconclusive: 263 nM
ClC(Cl)=C(c1ccc(Cl)cc1)c1ccccc1Cl,outcome,[2],inactive
COC(=O)c1c(C(F)F)nc(C(F)(F)F)c(C2=NCCS2)c1CC(C)C,AC50,[2],inconclusive: 149 nM
CNC(=S)S,AC50,[1],inconclusive: 25000 nM
CN=C=S,outcome,[1],inactive
COP(=S)(OC)Oc1ccc([N+](=O)[O-])c(C)c1,AC50,[1],inconclusive: 25000 nM
Oc1ccccc1-c1ccccc1,outcome,[3],inactive
same,AC50,[2],inconclusive: 187 nM
C=CCOC(N)=O,AC50,[2],inconclusive: 115 nM
C/C(=N\NC(=O)Nc1cc(F)cc(F)c1)c1ncccc1C(=O)O,AC50,[2],inconclusive: 40.1 nM
CC(C)(O)C(=O)Nc1ccc([N+](=O)[O-])c(C(F)(F)F)c1,AC50,[1],inconclusive: 19200 nM
Cc1[nH]c(=O)n(C(C)(C)C)c(=O)c1Cl,outcome,[1],inactive
Oc1ccc(C(c2ccc(O)cc2)(C(F)(F)F)C(F)(F)F)cc1,outcome,[1],inactive
COP(=S)(OC)Oc1ccc([N+](=O)[O-])cc1,AC50,[2],inconclusive: 4960 nM
CC[C@H](C)[C@H]1O[C@]2(C=C[C@@H]1C)C[C@@H]1C[C@@H](C/C=C(\C)[C@@H](O[C@H]3C[C@H](OC)[C@@H](O[C@H]4C[C@H](OC)[C@@H](O)[C@H](C)O4)[C@H](C)O3)[C@@H](C)/C=C/C=C3\CO[C@@H]4[C@H](O)C(C)=C[C@@H](C(=O)O1)[C@]34O)O2 (tested in a mixture with another compound),AC50,[1],inconclusive: 34 nM
CC(Cl)CN(C)C (centres undefined),outcome,[2],inactive
NC(=O)CCl,AC50,[2],inconclusive: 6800 nM

# Some of the entries above in a different format:
smiles | measurement | setting | value
CNC(=S)S | AC50 | [1] | inconclusive: 25000 nM
CN=C=S | outcome | [1] | inactive
